Laboratory results: PubChem BioAssay AID1159584 (Peter MacCallum Cancer Centre, 2016)
The deposit covers about 18,000 reagents; below is a part drawn at random. Further read-outs or replicates are left out here. The record does not give: the amount of reagent, the time to read-out.

Screen: 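Genes that CDH1-null MCF10A cells selectively depend on to survive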 (primary screen)
System: human MCF10A breast epithelial cells, parental and CDH1-null
Knock-down reagent: siRNA against human genes
Measurement: 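Cell viability by CellTiter-Glo ATP luminescence, each line scaled to the mean of mock wells across plates, then CDH1-null over parental ratio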
Scale: CDH1-null / parental viability ratio: higher = CDH1-null cells survive relatively better than parental

CLEC18B (C-type lectin domain family 18 member B) showed CDH1-null / parental viability ratio 0.92.
After knock-down of BDKRB1 (bradykinin receptor B1), the screen gave CDH1-null / parental viability ratio 1.23.
Knock-down of TEX264 (testis expressed 264, ER-phagy receptor) came out at: CDH1-null / parental viability ratio 0.99.
Knock-down of MRC2 (mannose receptor C-type 2) gave: CDH1-null / parental viability ratio 1.02.
Silencing of SLC4A11 came out at: CDH1-null / parental viability ratio 0.96.
ZFAT (zinc finger and AT-hook domain containing) showed CDH1-null / parental viability ratio 1.24.
Against VSIG2 (V-set and immunoglobulin domain containing 2), the entry reads CDH1-null / parental viability ratio 0.92.
Knock-down of WDFY1 (WD repeat and FYVE domain containing 1) resulted in: CDH1-null / parental viability ratio 1.14.
With knock-down of ADAMTS8 (ADAM metallopeptidase with thrombospondin type 1 motif 8), the record shows CDH1-null / parental viability ratio 1.04.
For KCTD10 (potassium channel tetramerization domain containing 10), the entry reads CDH1-null / parental viability ratio 1.34.
For OSBPL7 (oxysterol binding protein like 7), the values are CDH1-null / parental viability ratio 1.16.
PIGY (phosphatidylinositol glycan anchor biosynthesis class Y) showed CDH1-null / parental viability ratio 0.77.
Silencing of AKR7A3 (aldo-keto reductase family 7 member A3) gave: CDH1-null / parental viability ratio 1.01.
With knock-down of HIGD1A (HIG1 hypoxia inducible domain family member 1A), the screen gave CDH1-null / parental viability ratio 0.93.

2 entries from above in another layout.
gene | CDH1-null / parental viability ratio
SLC4A11 | 0.96
ZFAT (zinc finger and AT-hook domain containing) | 1.24
